# Test results as given in PubChem BioAssay AID2685 (National Center for Advancing Translational Sciences (NCATS), 2010).
# Some of the results follow. These are further read-outs of the screen, such as a control signal, another cell line or another target. No call is given for them. The list favours compounds with an active or inconclusive main result. Words in brackets tell the shape of the fitted curve; partial curves, single points and poor fits give uncertain potencies.
# Assay: qHTS Assay for Lipid Storage Modulators in Drosophila S3 Cells;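 for cell number change: cells counted by Cell Tracker Red CMTPX staining in the red channel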
# Conditions: BODIPY lipid droplet fluorescence, 18-24 h; for cell number change: measured here: cell count max response, cells fed with added oleic acid
# Procedure, shortened: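 Drosophila S3 cells loaded with oleic acid (400 uM, as added) and compounds at several concentrations; lipid droplets imaged by 488-nm laser-scanning cytometry, 500–530 nm intensity and object ratio to cell channel. Percent activity normalized to 20 uM Triacsin C.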
# [1] = measured here: cell number channel AC50, cells fed with added oleic acid
# [2] = measured here: lipid fluorescence (Fed channel) AC50, cells fed with added oleic acid
Structure (SMILES),cell number change [%],AC50 [1],AC50 [2]
CC(C)(C)c1csc(NC(=O)c2ccc(Br)o2)n1,-40.4,"8.2 µM [falling, partial curve]","6.51 µM [falling, full curve]"
CCOC(=O)c1cc(-c2ccccc2)sc1NC(=O)C(C)Sc1nnc(N)s1 (centres undefined),-35.6,"0.164 µM [falling, full curve, poor fit]",
Cn1c(Cn2cnc3ccccc32)nc2ccccc21,-39.8,"32.6 µM [falling, single point]",
O=C(NCCN1CCOCC1)c1cc(-c2ccc(Cl)s2)nc2ccccc12,20,,
O=C(NCCc1ccccc1)/C(=C\c1ccc([N+](=O)[O-])cc1)NC(=O)c1ccccc1,-23.3,,"7.31 µM [falling, partial curve]"
Cc1nn(C)c(=O)n1-c1ccc(OCc2ccccc2)cc1,63,"16.4 µM [rising, single point]","16.4 µM [rising, partial curve]"
CC1=CCC2C(=O)N(c3ccc(OC(=O)c4ccco4)cc3)C(=O)C2C1 (centres undefined),2.85,,"0.00517 µM [falling, full curve, poor fit]"
CCn1c(SCC(=O)c2c(N)n(C3CC3)c(=O)[nH]c2=O)nnc1-c1ccoc1C,11.8,,"1.16 µM [rising, full curve, poor fit]"
CCOCN(C(=O)Cn1c(CO)nc2ccccc21)c1c(C)cccc1CC,1.82,,"0.731 µM [rising, single point]"
O=C(NCCCn1ccnc1)c1cc2c(s1)CCCCC2,14.8,,"6.51 µM [rising, single point]"
O=C1C2CC=CCC2C(=O)N1CC(=O)N(Cc1ccccc1)C1CCS(=O)(=O)C1 (centres undefined),-6.82,,"1.03 µM [falling, full curve, poor fit]"
Cc1cc(C)c(C(=O)N(C)C2CCCN(Cc3ccccc3F)C2)o1 (centres undefined),7.65,,
COc1ccc(-c2cn(CCC(=O)O)c(-c3ccncc3)n2)cc1,5.94,,"0.00461 µM [rising, full curve, poor fit]"
Cc1cc2nnc(SCC(=O)NCC(c3ccccc3)N(C)C)n2c2ccccc12 (centres undefined),18.2,,"29.1 µM [falling, single point]"
COC(=O)C1C(=O)C=C(Nc2ccc(F)cc2)CC1c1ccc(OC)cc1 (centres undefined),7.45,,"1.46 µM [rising, full curve, poor fit]"
CSCC[C@@H](C(=O)Nc1ccc2c(c1)OCCO2)N1Cc2ccccc2C1=O,2.41,,
C=CCn1c(=O)c(C(=O)Nc2ccc(C)cc2)c(O)c2ccccc21,17.3,,"9.2 µM [rising, partial curve, poor fit]"
Cc1nn(C)c(C(=O)NNC(=S)Nc2ccc(Cl)cc2)c1[N+](=O)[O-],-19.4,,
COc1ccc(OC)c(NC(=O)CN(C)CC(=O)Nc2ccccc2Br)c1,,,"23.1 µM [rising, single point]"
CCc1ccc(NC(=O)COC(=O)c2nc3nc(C)cc(C)n3n2)cc1,19.8,"0.0651 µM [rising, full curve, poor fit]","0.058 µM [rising, full curve, poor fit]"

# Entries above that have a nitro group on carbon (2):
Structure (SMILES),cell number change [%],AC50 [1],AC50 [2]
O=C(NCCc1ccccc1)/C(=C\c1ccc([N+](=O)[O-])cc1)NC(=O)c1ccccc1,-23.3,,"7.31 µM [falling, partial curve]"
Cc1nn(C)c(C(=O)NNC(=S)Nc2ccc(Cl)cc2)c1[N+](=O)[O-],-19.4,,

# Single values from above:
# For AC50 [1], CC(C)(C)c1csc(NC(=O)c2ccc(Br)o2)n1 shows 8.2 µM [falling, partial curve]
# For AC50 [2], O=C(NCCc1ccccc1)/C(=C\c1ccc([N+](=O)[O-])cc1)NC(=O)c1ccccc1 shows 7.31 µM [falling, partial curve]

# Further compounds follow.

Structure (SMILES),cell number change [%],AC50 [1],AC50 [2]
Cc1csc(NC(=O)c2ccc(-c3ccc(Cl)cc3Cl)o2)n1,-48.1,"18.4 µM [falling, single point]","32.6 µM [falling, single point]"
C#CCOCCOCCOCCNc1nc(N2CCN(C(=O)CCCCCCCCCCNC(=O)[C@H](CO)n3cc(CCCSC)nn3)CC2)nc(N2CCN(C(=O)CCCCCCCCCCNC(=O)[C@H](CCCCN)n3cc(C[C@@H](C)CC)nn3)CC2)n1,-82.3,"10.3 µM [falling, partial curve]","11.6 µM [falling, partial curve]"
COc1ccc(C(=O)NCc2nnc(SCC(=O)NC3CCCCC3)o2)cc1,-15,,"29.1 µM [falling, single point]"
CCn1ccnc1CNC(=O)CC1C(=O)NCCN1Cc1ccccc1F (centres undefined),-15.1,,"0.116 µM [falling, full curve, poor fit]"
O=C(CSC1=Nc2ccccc2C2=NC(c3ccccc3)C(=O)N12)NCC1CCCO1 (centres undefined),-16.4,,"4.11 µM [rising, single point]"
CS(=O)(=O)N1CCC(C(=O)Nc2cc(Cl)cc(Cl)c2)CC1,21.7,"6.51 µM [rising, single point]",
CCn1c(SCC(=O)N=Nc2c(O)[nH]c3ccccc23)nc2ccccc21,10.8,,
COc1ccc(S(=O)(=O)Oc2ccc3c(c2)O/C(=C\c2cccnc2)C3=O)cc1,3.59,,"5.8 µM [rising, full curve]"
COc1cccc(N2CCN(c3c(C#N)c(C(F)(F)F)nn3C)CC2)c1,22,,"13 µM [falling, partial curve, poor fit]"
CC1(C)C/C(=N\NC(=S)Nc2ccccc2F)c2cc(O)ccc2O1,-43.9,"29.1 µM [falling, single point]",
C/C=C/COC(=O)c1[nH]c2c(c1C)C(=O)CC(c1ccc(N(C)C)cc1)C2 (centres undefined),,"1.3 µM [rising, partial curve]","1.64 µM [rising, partial curve]"
Cc1cc(C(=O)NC2CCCc3ccccc32)no1 (centres undefined),7.23,,"0.366 µM [rising, full curve, poor fit]"
CCC(=O)Nc1ccc(N2CCCCC2)c(C(=O)Nc2ccccc2C)c1,33.3,"2.06 µM [rising, full curve]","3.66 µM [rising, partial curve]"
COc1ccc(C(=O)C2CCN(C(=O)Nc3ccc(C)cc3)CC2)cc1,13.9,,"0.206 µM [rising, single point]"
COc1cc2ccccc2cc1C(=O)N1CCOCC1,-7.68,,"0.00461 µM [rising, full curve, poor fit]"
COn1c(SCc2ccccc2)nc2ccccc2c1=O,30.6,"29.1 µM [rising, single point]","32.6 µM [falling, single point]"
COc1cc(OC)cc(C(=O)N[C@H](C(=O)Nc2nc(-c3cc(OC)ccc3OC)cs2)C(C)C)c1,8.28,,
O=C(CCc1nc2ccccc2c(=O)[nH]1)OCCOc1ccc(Cl)cc1,,"6.51 µM [rising, single point]",
O=C(COC(=O)CN1C(=O)c2ccccc2C1=O)Nc1ccc(S(=O)(=O)N2CCCC2)cc1,20.7,,"2.31 µM [falling, partial curve]"
CCCCNc1ccc2c3c(cccc13)C(=O)N(CCCC)C2=O,-101,"16.4 µM [falling, partial curve]","7.31 µM [falling, partial curve]"

Structure (SMILES),cell number change [%],AC50 [1],AC50 [2]
O=C(COC(=O)CNC(=O)c1cccc(OC(F)F)c1)NNC(=O)c1ccccc1,-9.77,,"0.184 µM [rising, full curve, poor fit]"
O=C(O)c1ccc(COc2c(F)c(F)cc(F)c2F)cc1,,"0.651 µM [falling, single point]",
O=C(O)COc1ccc(Cl)cc1CO,8.53,,
COc1ccccc1/C=C/C(=O)OC(C)CN1CCCCC1 (centres undefined),3.24,,"29.1 µM [falling, single point]"
Cc1cc(-n2cnc(-c3cn(C)nc3C)n2)no1,22,,"1.46 µM [rising, partial curve]"
CCc1ccc(Nc2nnc(SCC(=O)N(C)C3CCS(=O)(=O)C3)s2)cc1 (centres undefined),-18.2,,"14.6 µM [falling, partial curve]"
COc1ccc(NC(=O)CSCC(=O)N(C)Cc2ccc3c(c2)OCCO3)cc1,-19.9,,"0.116 µM [rising, full curve, poor fit]"
COC(=O)c1cc(NS(=O)(=O)c2ccc(C)c3ccccc23)ccc1N1CCOCC1,,"0.58 µM [rising, single point]",
CC1CCc2cc(F)cc3c(O)c(C(=O)NCC4CCCO4)c(=O)n1c23 (centres undefined),-8.6,"0.82 µM [rising, full curve, poor fit]","16.4 µM [rising, partial curve]"
CC(=O)Nc1ccccc1NC(=O)C(F)(F)F,,,"5.8 µM [falling, full curve, poor fit]"
CCOC(=O)CSc1nc2sc3c(c2c(=O)n1-c1ccc(OC)cc1)CCN(C)C3,36.6,"6.51 µM [rising, full curve, poor fit]","6.51 µM [rising, partial curve, poor fit]"
COc1ccc(Cn2c(=O)[nH]c3cc(C(=O)N4CCN(c5ccccc5)CC4)ccc3c2=O)cc1,23.5,,
COCc1cc(C)nc(OCC(=O)N/N=C/c2ccc(O)cc2)c1C#N,-0.0159,,"9.2 µM [rising, partial curve]"
CCOC(=O)c1[nH]cnc1C(=O)Nc1ccccc1,14.4,,"0.103 µM [falling, full curve, poor fit]"
CCc1ncc(CN2CCCCC2C(=O)Nc2ccc(Oc3ccccc3)nc2)cn1 (centres undefined),-47.4,"29.1 µM [falling, partial curve, poor fit]",
Cn1nnnc1SCC(=O)Nc1cccc(S(=O)(=O)N2CCCC2)c1,0.947,"0.116 µM [falling, full curve, poor fit]","0.13 µM [falling, full curve, poor fit]"
CN(C)CCn1c2c(c(SCC(=O)Nc3nccs3)nc1=O)CCCC2,1.82,,
CCc1ccc(/C=N/NC(=O)c2cc(-c3ccncc3)nc3ccccc23)s1,36.7,"2.31 µM [rising, full curve]","3.26 µM [rising, full curve]"
